Measurements reported in US5376637A, “Pharmaceutical preparation containing vasoactive intestinal polypeptide or its analogue” (Sanwa Kagaku Kenkyusho Co., Ltd., priority 1991, dated 1994).
At least one peptide structure holds a part that was inferred or is arguable (an end, a ring closure or a residue). Where a SMILES comes first, the peptide text is derived from it. [ ]: non-standard residue; d: D form. The star is where a group is joined. hSer = N[C@@H](CCO)C(=O)O; NHDecyl = CCCCCCCCCCN*

Columns and labels:
arterial pressure = assay: Hypotensing action in anesthetized beagle dog; format: in vivo; conditions: injection in femoral artery, 0.02-10 μg/kg
Experimental: In a femoral artery of anesthetized beagle dog (body weight: about 10 kg), each of VIP analogues as Test Samples was injected in a dose of 0.02-10 μg/kg and measured an arterial pressure to prepare a chart showing a relation between the dose and change in blood pressure and check an amount of dose which shall cause a reduction of 15 mmHg in blood pressure.

PCA reaction = assay: Passive cutaneous anaphylaxis test (PCA reaction); format: in vivo; conditions: male rat
Experimental: A rat was immunized with egg-albumin suspended in aluminum hydroxide gel in a conventional manner and a blood letting was carried out to obtain an antiserum rich in IgE.
A male rat was anesthetized with ethyl ether and hairs on back were sheared to intradermally inject by 0.1 ml of the antiserum solution (diluted to 5-folds in volume) described in Item (1), at both sides with a certain distance from a medial line on the back. After 72 hours, a mixed solution of egg albumin (5 mg/kg), 2% Evans blue and a test compound (L-Leu^17 ]-VIP-Hse or pure native type VIP) or disodium cromoglycate was injected into a vein, under anesthetized with pentobarbital. After 30 minutes from an occasion of PCA reaction, the experimental animal was killed and pealed-off the skin to obtain a piece of the skin dyed with the coloring matter.
The coloring matter was extracted in accordance with the method described by Katayama ["Microbio. Immunol.", Vol. 22, No. 2, pages 89 (1987)] and an amount thereof was measured at 620 nm in wave length to calculate an inhibition of the PCA reaction.

Structure (SMILES) | amount of dose causing a reduction of 15 mmHg in blood pressure, relative value (native type VIP = 100%) (arterial pressure) [%] | Inhibition (%) of PCA reaction (PCA reaction; dose 0.01 mg/kg injected into a vein) [%] | Inhibition (%) of PCA reaction (PCA reaction; dose 0.1 mg/kg injected into a vein) [%] | Inhibition (%) of PCA reaction (PCA reaction; dose 1.0 mg/kg injected into a vein) [%]
CC[C@H](C)[C@H](NC(=O)[C@H](CO)NC(=O)[C@H](CC(N)=O)NC(=O)[C@H](CC(C)C)NC(=O)[C@H](Cc1ccc(O)cc1)NC(=O)[C@H](CCCCN)NC(=O)[C@H](CCCCN)NC(=O)[C@@H](NC(=O)[C@H](C)NC(=O)[C@H](CC(C)C)NC(=O)[C@H](CCC(N)=O)NC(=O)[C@H](CCCCN)NC(=O)[C@H](CCCNC(=N)N)NC(=O)[C@H](CC(C)C)NC(=O)[C@H](CCCNC(=N)N)NC(=O)[C@@H](NC(=O)[C@H](Cc1ccc(O)cc1)NC(=O)[C@H](CC(N)=O)NC(=O)[C@H](CC(=O)O)NC(=O)[C@@H](NC(=O)[C@H](Cc1ccccc1)NC(=O)[C@@H](NC(=O)[C@H](C)NC(=O)[C@H](CC(=O)O)NC(=O)[C@H](CO)NC(=O)[C@@H](N)Cc1c[nH]cn1)C(C)C)[C@@H](C)O)[C@@H](C)O)C(C)C)C(=O)N[C@@H](CC(C)C)C(=O)N[C@@H](CC(N)=O)C(=O)N[C@@H](CCO)C(N)=O [[L-Leu^17]-VIP-Hse-NH2] (H-HSDAVFTDNYTRLRKQLAVKKYLNSILN[hSer]-NH2) | 54 | – | – | –
CC[C@H](C)[C@H](NC(=O)[C@H](CO)NC(=O)[C@H](CC(N)=O)NC(=O)[C@H](CC(C)C)NC(=O)[C@H](Cc1ccc(O)cc1)NC(=O)[C@H](CCCCN)NC(=O)[C@H](CCCCN)NC(=O)[C@@H](NC(=O)[C@H](C)NC(=O)[C@H](CC(C)C)NC(=O)[C@H](CCC(N)=O)NC(=O)[C@H](CCCCN)NC(=O)[C@H](CCCNC(=N)N)NC(=O)[C@H](CC(C)C)NC(=O)[C@H](CCCNC(=N)N)NC(=O)[C@@H](NC(=O)[C@H](Cc1ccc(O)cc1)NC(=O)[C@H](CC(N)=O)NC(=O)[C@H](CC(=O)O)NC(=O)[C@@H](NC(=O)[C@H](Cc1ccccc1)NC(=O)[C@@H](NC(=O)[C@H](C)NC(=O)[C@H](CC(=O)O)NC(=O)[C@H](CO)NC(=O)[C@@H](N)Cc1c[nH]cn1)C(C)C)[C@@H](C)O)[C@@H](C)O)C(C)C)C(=O)N[C@@H](CC(C)C)C(=O)N[C@@H](CC(N)=O)C(=O)N[C@@H](CCO)C(=O)O [[L-Leu^17]-VIP-Hse] (H-HSDAVFTDNYTRLRKQLAVKKYLNSILN[hSer]-OH) | 21 | 31 | 79 | 68
CCCCCCCCCCNC(=O)[C@H](CCO)NC(=O)[C@H](CC(N)=O)NC(=O)[C@H](CC(C)C)NC(=O)[C@@H](NC(=O)[C@H](CO)NC(=O)[C@H](CC(N)=O)NC(=O)[C@H](CC(C)C)NC(=O)[C@H](Cc1ccc(O)cc1)NC(=O)[C@H](CCCCN)NC(=O)[C@H](CCCCN)NC(=O)[C@@H](NC(=O)[C@H](C)NC(=O)[C@H](CC(C)C)NC(=O)[C@H](CCC(N)=O)NC(=O)[C@H](CCCCN)NC(=O)[C@H](CCCNC(=N)N)NC(=O)[C@H](CC(C)C)NC(=O)[C@H](CCCNC(=N)N)NC(=O)[C@@H](NC(=O)[C@H](Cc1ccc(O)cc1)NC(=O)[C@H](CC(N)=O)NC(=O)[C@H](CC(=O)O)NC(=O)[C@@H](NC(=O)[C@H](Cc1ccccc1)NC(=O)[C@@H](NC(=O)[C@H](C)NC(=O)[C@H](CC(=O)O)NC(=O)[C@H](CO)NC(=O)[C@@H](N)Cc1c[nH]cn1)C(C)C)[C@@H](C)O)[C@@H](C)O)C(C)C)[C@@H](C)CC [[L-Leu^17]-VIP-Hse-NH(CH2)9 CH3] (H-HSDAVFTDNYTRLRKQLAVKKYLNSILN[hSer]-NHDecyl) | 68 | – | – | –
